No constants are given. Whether binding was seen depends on the method and setting.
Biological target: Deinococcus radiodurans UvrA1 (Deinococcus radiodurans) (UniProt Q46577)
Assay: SEC; size-exclusion chromatography of drUvrA1 with drUvrB; told only in the discussion, no conditions or figure given; both purified

Chains of the proteins cited; added tags and fusions are not shown.
UniProt Q46577: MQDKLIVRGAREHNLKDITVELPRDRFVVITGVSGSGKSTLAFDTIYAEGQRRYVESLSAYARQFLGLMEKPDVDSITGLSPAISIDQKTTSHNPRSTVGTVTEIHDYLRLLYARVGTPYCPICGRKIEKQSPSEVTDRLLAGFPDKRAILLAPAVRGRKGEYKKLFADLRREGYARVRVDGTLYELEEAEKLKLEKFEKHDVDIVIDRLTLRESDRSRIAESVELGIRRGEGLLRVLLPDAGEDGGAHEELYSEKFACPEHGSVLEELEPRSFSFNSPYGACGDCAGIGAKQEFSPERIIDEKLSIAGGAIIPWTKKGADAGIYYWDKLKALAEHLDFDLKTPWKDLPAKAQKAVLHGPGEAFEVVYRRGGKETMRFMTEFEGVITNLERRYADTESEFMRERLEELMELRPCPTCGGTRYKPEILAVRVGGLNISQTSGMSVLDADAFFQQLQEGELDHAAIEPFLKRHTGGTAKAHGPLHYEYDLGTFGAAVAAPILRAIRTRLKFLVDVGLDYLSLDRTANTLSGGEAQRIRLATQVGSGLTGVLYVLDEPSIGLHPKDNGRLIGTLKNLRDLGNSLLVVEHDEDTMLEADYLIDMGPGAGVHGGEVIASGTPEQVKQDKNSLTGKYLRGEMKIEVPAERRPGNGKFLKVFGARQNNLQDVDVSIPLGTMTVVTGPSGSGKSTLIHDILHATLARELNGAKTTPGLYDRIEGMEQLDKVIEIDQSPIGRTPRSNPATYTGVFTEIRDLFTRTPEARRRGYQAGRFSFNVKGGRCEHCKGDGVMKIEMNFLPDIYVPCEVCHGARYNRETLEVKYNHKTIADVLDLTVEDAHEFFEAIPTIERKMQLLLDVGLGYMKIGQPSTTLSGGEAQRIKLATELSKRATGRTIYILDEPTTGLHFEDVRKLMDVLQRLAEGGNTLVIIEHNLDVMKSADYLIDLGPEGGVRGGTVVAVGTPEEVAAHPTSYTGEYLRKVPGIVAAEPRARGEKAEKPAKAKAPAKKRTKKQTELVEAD

- binding: no binding
B1: Deinococcus radiodurans UvrB (protein, UniProt Q9RS52 60-730)
chain: MLKVRSEFKPSGDQPTAIASLVDGLESGLRYQTLLGATGTGKTYSMAKVIEEVQRPALIMAPNKILTAQLASEFREFFPDAAVEFFISYYDYYQPEAYVPGKDLFIEKDASVNQEIERLRHSTTRSLLTRRDTIVVASVSCIYGLGDPKEYTALNAIVKKGGVMPRDELLGRLVNMQYERNDIELMPGRFSVKGETVTVWPAYDEQPLRIELWGDDVERISVVHPLTGERLGDLDATVVYPAKHYVSSAGNIERAIGSIQQELDERLEYFHSVGKLLEAQRLKERTLYDLEMLKVLGYCSGIENYSRHIDGRAPGATPYTMLDYFPDDFITFIDESHVTVPQIGGMANGDRARKQTLVDYGFRLPSAMDNRPLNFEEFLSKTGQTVFVSATPGPFENQVSDSVADQIIRPTGLVDPEVTIRPIQGQIEDLLGRVRERTAAGERTLVTTLTKRMSEDLTEYLLEKGVKARYLHSDIDSVERQVIIRDLRLGHYDVLVGINLLREGLDLPEVSLVAILDADKPGFLRSDRALIQTIGRAARNVNGEVILYADVVTPAMRFAMDETARRREKQLAYNEEHGITPRTVIKGVRDVIRGEELEGEISSENVSGDRDSLTAQLTDLELDMWQASEAMDFEKAASLRDQIRAIEAKLQGKEFKQATVPGQKARRKGRR
